Results from patent US20120207770A1 (NANYANG TECHNOLOGICAL UNIVERSITY, published 2012).
No constants are given. Whether binding was seen depends on the method and setting. For some of these results: Binding seen in cells or lysates may run through a third protein. Some results given as binding are weak or reduced against the parent protein; the word gives no strength.

Protein sequences, listed by entry. Tags and fused reporters are not part of them. Residues count along the entry.
UniProt P05556: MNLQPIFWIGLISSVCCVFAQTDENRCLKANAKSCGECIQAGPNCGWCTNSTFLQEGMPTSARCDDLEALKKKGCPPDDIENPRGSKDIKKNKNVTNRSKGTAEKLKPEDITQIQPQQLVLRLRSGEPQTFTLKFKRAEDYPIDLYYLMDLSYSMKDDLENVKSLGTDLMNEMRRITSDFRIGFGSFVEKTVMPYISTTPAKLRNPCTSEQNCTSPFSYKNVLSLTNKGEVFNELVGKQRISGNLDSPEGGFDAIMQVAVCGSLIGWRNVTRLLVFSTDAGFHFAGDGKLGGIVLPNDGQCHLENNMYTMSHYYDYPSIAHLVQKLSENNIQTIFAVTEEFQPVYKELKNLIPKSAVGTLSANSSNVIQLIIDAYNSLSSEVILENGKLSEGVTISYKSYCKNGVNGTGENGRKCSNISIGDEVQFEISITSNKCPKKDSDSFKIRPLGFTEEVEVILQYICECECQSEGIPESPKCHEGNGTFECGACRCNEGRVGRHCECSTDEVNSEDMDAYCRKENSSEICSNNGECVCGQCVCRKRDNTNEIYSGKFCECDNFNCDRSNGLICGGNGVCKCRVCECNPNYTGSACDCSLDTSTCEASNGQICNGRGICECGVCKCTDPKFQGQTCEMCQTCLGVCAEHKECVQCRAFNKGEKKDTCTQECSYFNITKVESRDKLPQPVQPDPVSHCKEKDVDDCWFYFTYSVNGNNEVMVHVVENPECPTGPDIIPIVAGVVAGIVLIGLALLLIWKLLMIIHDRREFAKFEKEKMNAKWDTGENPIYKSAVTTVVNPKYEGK
UniProt P18084, residues 24-799: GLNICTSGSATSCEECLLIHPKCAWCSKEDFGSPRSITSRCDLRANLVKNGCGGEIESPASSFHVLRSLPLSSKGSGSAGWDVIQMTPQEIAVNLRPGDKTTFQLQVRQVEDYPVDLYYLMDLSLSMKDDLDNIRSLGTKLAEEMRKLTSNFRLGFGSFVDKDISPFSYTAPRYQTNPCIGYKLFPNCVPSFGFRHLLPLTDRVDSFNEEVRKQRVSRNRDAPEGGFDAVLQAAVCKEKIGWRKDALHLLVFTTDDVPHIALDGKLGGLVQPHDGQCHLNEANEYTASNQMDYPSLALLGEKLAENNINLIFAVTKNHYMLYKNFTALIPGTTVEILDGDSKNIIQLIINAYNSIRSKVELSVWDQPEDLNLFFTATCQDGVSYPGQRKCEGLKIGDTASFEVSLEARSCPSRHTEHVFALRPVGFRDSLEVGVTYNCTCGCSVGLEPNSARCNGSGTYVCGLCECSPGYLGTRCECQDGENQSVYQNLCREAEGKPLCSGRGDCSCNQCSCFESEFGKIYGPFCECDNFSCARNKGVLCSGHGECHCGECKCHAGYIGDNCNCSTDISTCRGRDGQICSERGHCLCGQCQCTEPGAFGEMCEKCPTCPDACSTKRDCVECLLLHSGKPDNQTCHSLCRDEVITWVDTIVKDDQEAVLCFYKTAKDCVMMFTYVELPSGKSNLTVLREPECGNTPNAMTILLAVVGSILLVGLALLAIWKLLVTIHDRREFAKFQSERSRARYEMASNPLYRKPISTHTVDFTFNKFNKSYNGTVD

Key:
[1] = target: integrin β1, endogenous, on A-5RT3 tumor cells and A-5RT3-induced tumors (human) (UniProt P05556); test: summary of the filing's results
[2] = target: integrin β5, endogenous, on A-5RT3 tumor cells and A-5RT3-induced tumors (human) (UniProt P18084); test: summary of the filing's results
[3] = target: integrin β1, endogenous, on A-5RT3 tumor cells and A-5RT3-induced tumors (human) (UniProt P05556); test: in situ proximity ligation assay
[4] = target: integrin β5, endogenous, on A-5RT3 tumor cells and A-5RT3-induced tumors (human) (UniProt P18084); test: in situ proximity ligation assay
[5] = target: integrin β1, endogenous, on A-5RT3 tumor cells and A-5RT3-induced tumors (human) (UniProt P05556); test: in situ proximity ligation assay on A-5RT3 cells and induced tumors
[6] = target: integrin β5, endogenous, on A-5RT3 tumor cells and A-5RT3-induced tumors (human) (UniProt P18084); test: as above
[7] = target: integrin β1, endogenous, on A-5RT3 tumor cells and A-5RT3-induced tumors (human) (UniProt P05556); test: in situ proximity ligation assay on A-5RT3 cells
[8] = target: integrin β5, endogenous, on A-5RT3 tumor cells and A-5RT3-induced tumors (human) (UniProt P18084); test: in situ proximity ligation assay on A-5RT3 cells
[9] = target: integrin β1, endogenous, on A-5RT3 tumor cells and A-5RT3-induced tumors (human) (UniProt P05556); test: co-immunoprecipitation from tumor lysates, immunoblot
[10] = target: integrin β5, endogenous, on A-5RT3 tumor cells and A-5RT3-induced tumors (human) (UniProt P18084); test: as above
[11] = target: integrin β1, endogenous, on A-5RT3 tumor cells and A-5RT3-induced tumors (human) (UniProt P05556); test: in situ proximity ligation assay on tumors
[12] = target: integrin β1, endogenous, on A-5RT3 tumor cells and A-5RT3-induced tumors (human) (UniProt P05556); test: in situ proximity ligation assay on tumor biopsies
[13] = target: integrin β5, endogenous, on A-5RT3 tumor cells and A-5RT3-induced tumors (human) (UniProt P18084); test: in situ proximity ligation assay on tumor biopsies

Measured: binding

B1: tumor-derived (endogenous) ANGPTL4, detected as cANGPTL4, of A-5RT3 and other human tumor cells (ligand, UniProt Q9BY76 164-406, looked up)
chain: RLPEMAQPVDPAHNVSRLHRLPRDCQELFQVGERQSGLFEIQPQGSPPFLVNCKMTSDGGWTVIQRRHDGSVDFNRPWEAYKAGFGDPHGEFWLGLEKVHSITGDRNSRLAVQLRDWDGNAELLQFSVHLGGEDTAYSLQLTAPVAGQLGATTVPPSGLSVPFSTWDQDHDLRRDKNCAKSLSGGWWFGTCSHSNLNGQYFRSIPQQRQKLKKGIFWKTWRGRYYPLQATTMLIQPMAAEAAS
binds: all assays above
